In patent publication US6511976B1, “Halogen substituted tetracyclic tetrahydrofuran derivatives” (Jannsen Pharmaceutica, N.V., priority 1997, dated 2003):
Some results were stated once for a whole list of compounds, not compound by compound.

Key:
[1] = test system: mCPP induced effects; assay: mCPP Test on Rats, fast onset of action (test compound intravenously at pre-test time T of 5 minutes); format: in vivo; conditions: mCPP intravenously at pre-test time T of 15 minutes; test compound intravenously at pre-test time T of 5 minutes
[2] = test system: mCPP induced effects; assay: mCPP Test on Rats (pre-test time T of 1 hour); format: in vivo; conditions: test compound at pre-test time T of 1 hour; 1 mg/kg mCPP intravenously 15 minutes prior to test
Method: Rats were treated with the test compound at a varying dose at a pre-test time T of 1 hour and with 1 mg/kg mCPP (metachlorophenylpiperazine), injected intravenously, 15 minutes prior to the test. After pre-test time T elapsed, treated rats were submitted to the “Open Field Test on Rats” as described in Drug Dev. Res. 18, 119-144 (1989), but using an infra-red light source instead of a Kleverlux® (12V/20W) light source. […] Compound numbers 2 and 8 through 16 were active at a test dose of 2.5 mg/kg or lower. Other compounds were either not tested or were active at a higher dose.

CN(C)CC1CC2c3ccccc3Cc3ccc(F)cc3C2O1.Cl (racemic) [Compound 2, (±)-(2α,3aβ,12bα)-11-fluoro-3,3a,8,12b-tetrahydro N,N-dimethyl-2H-dibenzo[3,4:6,7]cyclohepta[1,2-b]furan-2-methanamine hydrochloride]
active dose in reversing the mCPP induced effects (fast onset of action) [1]: ≤ 2.5 mg/kg | dose with complete antagonism of the mCPP induced effects (100% of the tested rats showed complete suppression) [2]: ≤ 2.5 mg/kg
